According to patent US20230250193A1 (PROVIVA THERAPEUTICS HONG KONG, published 2023):
Results are given in words; binding and its absence hold for the method and conditions named. Some results given as binding are weak or reduced against the parent protein; the word gives no strength.

Target: T1, B7H3 protein expressed on cells (human) (UniProt Q5ZPR3)
T1 sequence: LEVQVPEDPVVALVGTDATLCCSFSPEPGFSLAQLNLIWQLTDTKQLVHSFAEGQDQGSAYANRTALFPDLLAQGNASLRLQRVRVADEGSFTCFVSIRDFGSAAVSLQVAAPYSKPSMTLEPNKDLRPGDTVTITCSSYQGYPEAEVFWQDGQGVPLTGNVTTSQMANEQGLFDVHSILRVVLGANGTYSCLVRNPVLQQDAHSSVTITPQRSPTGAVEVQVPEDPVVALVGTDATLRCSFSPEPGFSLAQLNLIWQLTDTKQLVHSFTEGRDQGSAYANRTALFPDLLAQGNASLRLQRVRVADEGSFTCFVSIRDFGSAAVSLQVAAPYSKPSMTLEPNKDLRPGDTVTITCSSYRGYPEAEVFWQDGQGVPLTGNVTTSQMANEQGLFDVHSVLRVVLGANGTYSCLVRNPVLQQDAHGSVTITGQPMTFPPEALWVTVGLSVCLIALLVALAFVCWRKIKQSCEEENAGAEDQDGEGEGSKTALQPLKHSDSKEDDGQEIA
Assay: flow cytometry on B7H3-expressing cells, PE-labeled anti-human IgG detection

B1: P28832158 (antibody, human IgG1, kappa, V domains shown)
VH: QVQLVQSGAEVKKPGASVKVSCKASGYTFTMNIIHWVRQAPGQGLEWMGWIHPGSGAIKYAQKLQGRVTMTTDTSTSTAYMELRSLRSDDTAVYYCARHGGTGRGAMDYWGQGTLVTVSS
VL: EIVLTQSPGTLSLSPGERATLSCRASQSVSTSAYSYMHWYQQKPGQAPRLLIYLASNLESGIPDRFSGSGSGTDFTLTISRLEPEDFAVYYCQQSRELPYTFGQGTKLEIKR
notes: Produced in Expi293 cells; also called M-87_G1; VH6.32/VL7.00
binding: binds
